{"source": "the supplement of paper PMC7125110", "parents": {"B1": {"name": "glmS ribozyme (parent)", "chain": "AUAAAAGCGCCAGAACUACAGAAAUGUAGUUGACGAGGAGGAGGUUUAUCGAAUUUUCGGCGGAUGCCUCCAAA"}}, "note": "± gives the standard error. Many entries were measured with a wide error.", "data": [{"variants_of": "B1", "assay": "self-cleavage kobs at 2500 uM GlcN6P; higher = faster cleavage; RNA array", "settings": "with glucosamine-6-phosphate", "summary_of_the_method": "(§1)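 kobs was derived by fitting per-tile medians to one- or two-exponential decays after normalising signals to baseline and to non-cleaving reference variants. Those signals came from barcoded ribozyme variants transcribed in situ by E. coli RNA polymerase on sequenced MiSeq chips, followed through a hybridised Cy3 probe at 37 °C and imaged over ~14 h. Glucosamine-6-phosphate (40 μM to 10 mM) in HEPES/KCl/Mg(OAc)2 buffer was flowed in. Weighted Michaelis–Menten fits across concentrations then gave kcat and KM.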", "units": {"self-cleavage kobs at 2500 uM GlcN6P": "s⁻¹"}, "values": [{"variant": "G7U C70G C71G", "self-cleavage kobs at 2500 uM GlcN6P": "2.64e-05 ± 2.3e-05"}, {"variant": "G7A C50G", "self-cleavage kobs at 2500 uM GlcN6P": "2.37e-05 ± 2.3e-05"}, {"variant": "A14U G66C C68U", "self-cleavage kobs at 2500 uM GlcN6P": "3.95e-05 ± 2.3e-05"}, {"variant": "G29C G66U C68U", "self-cleavage kobs at 2500 uM GlcN6P": "2.91e-05 ± 1.6e-05"}, {"variant": "A12U C16A C50A A64G", "self-cleavage kobs at 2500 uM GlcN6P": "0.00283 ± 0.0027"}, {"variant": "U30C G37A", "self-cleavage kobs at 2500 uM GlcN6P": "2.09e-05 ± 1.8e-05"}, {"variant": "C10G G60U C67A", "self-cleavage kobs at 2500 uM GlcN6P": "4.02e-05 ± 2.2e-05"}, {"variant": "C11U A12C U55G", "self-cleavage kobs at 2500 uM GlcN6P": "2.55e-05 ± 1.8e-05"}, {"variant": "C10U U49C C58U C61A", "self-cleavage kobs at 2500 uM GlcN6P": "2.51e-05 ± 1.9e-05"}, {"variant": "C16U A36U G37U C50U C71A", "self-cleavage kobs at 2500 uM GlcN6P": "3.82e-05 ± 2.3e-05"}, {"variant": "U31G A39U A64C C70U", "self-cleavage kobs at 2500 uM GlcN6P": "3.55e-05 ± 2.2e-05"}, {"variant": "A12U G37C U54C", "self-cleavage kobs at 2500 uM GlcN6P": "2.91e-05 ± 1.5e-05"}, {"variant": "C68G C70U", "self-cleavage kobs at 2500 uM GlcN6P": "1.74e-05 ± 1.5e-05"}, {"variant": "A12C G13U C67U", "self-cleavage kobs at 2500 uM GlcN6P": "2.82e-05 ± 2.2e-05"}, {"variant": "A6G A52G", "self-cleavage kobs at 2500 uM GlcN6P": "2.63e-05 ± 1.4e-05"}, {"variant": "A15U C67A C68A", "self-cleavage kobs at 2500 uM GlcN6P": "2.77e-05 ± 2e-05"}, {"variant": "G9A U47G C50G U65G", "self-cleavage kobs at 2500 uM GlcN6P": "3.91e-05 ± 3.4e-05"}, {"variant": "C16A G32A C70G", "self-cleavage kobs at 2500 uM GlcN6P": "3.81e-05 ± 2.2e-05"}, {"variant": "C10A C16U C67G", "self-cleavage kobs at 2500 uM GlcN6P": "2.96e-05 ± 2.8e-05"}, {"variant": "A14U C50A", "self-cleavage kobs at 2500 uM GlcN6P": "2.4e-05 ± 1.6e-05"}, {"variant": "U30C G37A C70G", "self-cleavage kobs at 2500 uM GlcN6P": "2.25e-05 ± 2.2e-05"}, {"variant": "C10G C16A G66U C68G", "self-cleavage kobs at 2500 uM GlcN6P": "5.85e-05 ± 4e-05"}, {"variant": "G59A U69C", "self-cleavage kobs at 2500 uM GlcN6P": "2.91e-05 ± 2.5e-05"}, {"variant": "U31G G63U C71A", "self-cleavage kobs at 2500 uM GlcN6P": "2.87e-05 ± 2.7e-05"}]}, {"variants_of": "B1", "assay": "self-cleavage kobs at 10000 uM GlcN6P; higher = faster cleavage; RNA array", "settings": "with glucosamine-6-phosphate", "summary_of_the_method": "as §1", "units": {"self-cleavage kobs at 10000 uM GlcN6P": "s⁻¹"}, "values": [{"variant": "G7U C70G C71G", "self-cleavage kobs at 10000 uM GlcN6P": "2.42e-05 ± 1.9e-05"}, {"variant": "A12C G13U C67U", "self-cleavage kobs at 10000 uM GlcN6P": "2.47e-05 ± 1.6e-05"}, {"variant": "C16G U57A C68U", "self-cleavage kobs at 10000 uM GlcN6P": "3.02e-05 ± 1.9e-05"}]}, {"variants_of": "B1", "assay": "self-cleavage kobs at 640 uM GlcN6P; higher = faster cleavage; RNA array", "settings": "with glucosamine-6-phosphate", "summary_of_the_method": "as §1", "units": {"self-cleavage kobs at 640 uM GlcN6P": "s⁻¹"}, "values": [{"variant": "C16U U46C C58G C61G", "self-cleavage kobs at 640 uM GlcN6P": "0.0003 ± 0.00015"}, {"variant": "C34G C71G", "self-cleavage kobs at 640 uM GlcN6P": "2.49e-05 ± 1.6e-05"}, {"variant": "C68A C71U", "self-cleavage kobs at 640 uM GlcN6P": "1.6e-05 ± 1.3e-05"}, {"variant": "A39C A48C", "self-cleavage kobs at 640 uM GlcN6P": "1.34e-05 ± 1.1e-05"}, {"variant": "C61A", "self-cleavage kobs at 640 uM GlcN6P": "< 1e-05"}, {"variant": "C61U", "self-cleavage kobs at 640 uM GlcN6P": "< 1e-05"}, {"variant": "A52C U55G C58G C68A", "self-cleavage kobs at 640 uM GlcN6P": "4.31e-05 ± 2.3e-05"}, {"variant": "U30C U47A C70A", "self-cleavage kobs at 640 uM GlcN6P": "6.18e-05 ± 3.1e-05"}, {"variant": "C16G U57A C68U", "self-cleavage kobs at 640 uM GlcN6P": "3.9e-05 ± 2.4e-05"}, {"variant": "G59A U69C", "self-cleavage kobs at 640 uM GlcN6P": "2.2e-05 ± 1.3e-05"}]}, {"variants_of": "B1", "assay": "self-cleavage kobs at 160 uM GlcN6P; higher = faster cleavage; RNA array", "settings": "with glucosamine-6-phosphate", "summary_of_the_method": "as §1", "units": {"self-cleavage kobs at 160 uM GlcN6P": "s⁻¹"}, "values": [{"variant": "C16G U30C", "self-cleavage kobs at 160 uM GlcN6P": "2.69e-05 ± 2.1e-05"}, {"variant": "A12C G44U", "self-cleavage kobs at 160 uM GlcN6P": "1.8e-05 ± 1.4e-05"}, {"variant": "G32A G44U C67U", "self-cleavage kobs at 160 uM GlcN6P": "1.85e-05 ± 1.4e-05"}, {"variant": "A6C C10A G32A G51A A52G A53G G59C G63U C68A", "self-cleavage kobs at 160 uM GlcN6P": "3.58e-05 ± 2.8e-05"}, {"variant": "G62A C70G", "self-cleavage kobs at 160 uM GlcN6P": "2.17e-05 ± 2e-05"}, {"variant": "C68G C70U", "self-cleavage kobs at 160 uM GlcN6P": "1.63e-05 ± 1.5e-05"}, {"variant": "G29U G37A", "self-cleavage kobs at 160 uM GlcN6P": "2.11e-05 ± 1.1e-05"}, {"variant": "C67A U69A", "self-cleavage kobs at 160 uM GlcN6P": "3.93e-05 ± 2.2e-05"}]}]}
